PubChem BioAssay AID686937 | Drosophila RNAi Screening Center – 2013
Screen: 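Genes in the fly needed for secretion of protein constitutively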 (primary screen). Cells: Drosophila S2 cells expressing secreted horseradish peroxidase. Reagents: long dsRNA against Drosophila genes. Timing: about 5.5 days (5 days dsRNA, then 12 h reporter induction). Conditions: reporter expression induced after 5 days of dsRNA, read 12 h later; inducer not stated. Measurement: 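Chemiluminescent measurement of peroxidase in the medium 12 h after reporter induction, following 5 days of dsRNA, given as a z-score per plate; higher means more secretion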. Direction: z-score: higher = more reporter secreted into medium.
The screen tested about 23,000 reagents; shown is a random part of those with a known target gene and a result. 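Reduced-secretion tags in replicate 1 do not always agree with the z-scores; no criterion for assigning the tags was given.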 Names joined by + are all predicted targets of the reagent. Not stated in the record: the amount of reagent.

gene | dsRNA | z-score, replicate 1 | z-score, replicate 2 | z-score, replicate 3 | z-score, replicate 4 | phenotype, replicate 1
Nha1 (Na[+]/H[+] hydrogen antiporter 1) | DRSC02109 | 0.27 | 0.43 | – | – | –
Josd (Josephin domain containing) | DRSC18323 | 0.44 | 0.46 | – | – | –
CG11470 | DRSC14313 | -0.03 | 0.41 | – | – | –
nero | DRSC15432 | 0.09 | -0.04 | – | – | –
SdhA (Succinate dehydrogenase, subunit A (flavoprotein)) | DRSC07547 | 0.37 | 0.2 | – | – | –
Cpr11A (Cuticular protein 11A) | DRSC19861 | -0.02 | -0.07 | – | – | –
CG11828 | DRSC14394 | 0.25 | 0.38 | – | – | –
CG11828 | DRSC22580 | 0.18 | -0.06 | – | – | –
CG31406 | DRSC12777 | 0.4 | 0.4 | – | – | –
TkR99D (Tachykinin-like receptor at 99D) | DRSC16881 | -0.03 | -0.31 | – | – | –
CG14357 | DRSC14820 | 0.16 | -0.45 | – | – | –
Syn1 (Syntrophin-like 1) | DRSC11803 | 0.16 | 0.34 | – | – | –
Syn1 (Syntrophin-like 1) | DRSC11804 | 0.33 | 0.45 | – | – | –
Fntb (Farnesyl transferase beta subunit) | DRSC15244 | 0.36 | 0.27 | – | – | –
Rpp30 (RNaseP protein p30) | DRSC00320 | -0.09 | -0.2 | – | – | –
Ir7b (Ionotropic receptor 7b) | DRSC18009 | -0.06 | -0.98 | – | – | –
Kebab (Kinetochore and EB1 associated basic protein) | DRSC00827 | 0.25 | 0.37 | – | – | –
Sgs4 (Salivary gland secretion 4) | DRSC18715 | 0.26 | 0.21 | – | – | –
RpS2 (Ribosomal protein S2) | DRSC03614 | -4.06 | -3.1 | – | – | reduced secretion
CG42709 | DRSC10277 | 0.32 | 0.34 | – | – | –
cactin | DRSC20576 | -2.36 | -3.94 | – | – | reduced secretion
CG11374 | DRSC00306 | 0.35 | 0.21 | – | – | –
TotZ (Turandot Z) | DRSC13450 | -0.81 | -0.18 | – | – | –
CG13833 | DRSC14683 | 0.36 | 0.4 | – | – | –
AttB (Attacin-B) | DRSC06734 | 0.17 | 0.34 | – | – | –
CG30378 | DRSC05071 | -0.14 | – | – | – | –
CG6071 | DRSC10579 | 0.31 | 0.17 | – | – | –
Tspo + rempA | DRSC00533 | 0.39 | 0.38 | – | – | –
Twdlbeta (Tweedlebeta) | DRSC07310 | 0.29 | 0.33 | – | – | –
FoxK (Forkhead box K) | DRSC09859 | 0.01 | 0.04 | – | – | –
CG18048 | DRSC12573 | 0.34 | -0.03 | – | – | –
lncRNA:CR43314 (long non-coding RNA::CR43314) | DRSC01216 | 0.65 | -0.13 | – | – | –
lncRNA:CR43314 (long non-coding RNA::CR43314) | DRSC21354 | 0.17 | -0.57 | – | – | –
CG30053 | DRSC07260 | 0.36 | 0.18 | – | – | –
Tgi (Tondu-domain-containing Growth Inhibitor) | DRSC09793 | 0.57 | 0.37 | – | – | –
Tgi (Tondu-domain-containing Growth Inhibitor) | DRSC09794 | 0.57 | 0.24 | – | – | –
CG13998 | DRSC02330 | 0.42 | 0.2 | – | – | –
wdn (wings down) | DRSC17095 | -0.13 | 0.07 | – | – | –
ocn (ocnus) | DRSC17020 | 0.26 | 0.06 | – | – | –
aurA (aurora A) | DRSC16905 | -1.36 | -0.67 | – | – | –
Cda5 (Chitin deacetylase-like 5) | DRSC00003 | 0.84 | 0.34 | 0.56 | 0.27 | –
Cda5 (Chitin deacetylase-like 5) | DRSC00529 | 0.22 | 0.22 | – | – | –
Cda5 (Chitin deacetylase-like 5) | DRSC00532 | 0.1 | 0.07 | – | – | –
Cda5 (Chitin deacetylase-like 5) | DRSC21330 | 0.88 | 0.28 | – | – | –
Or47a (Odorant receptor 47a) | DRSC07491 | 0.21 | 0.26 | – | – | –
Taf1 (TBP-associated factor 1) | DRSC12607 | -1.94 | -1.65 | – | – | reduced secretion
ssp3 (short spindle 3) | DRSC02669 | 1.65 | -0.04 | – | – | –
ssp3 (short spindle 3) | DRSC02670 | 0.47 | 0.7 | – | – | –
Cln3 | DRSC10520 | 0.47 | 0.27 | – | – | –
HIPP1 (HP1 and insulator partner protein 1) | DRSC11748 | 0.1 | 0.02 | – | – | –
ana1 (anastral spindle 1) | DRSC16079 | 0.34 | 0.51 | – | – | –
ana1 (anastral spindle 1) | DRSC21825 | -0.03 | 1.21 | – | – | –
EMC2B + EMC2A | DRSC15241 | -0.25 | -0.34 | – | – | –
CG2617 | DRSC02712 | 0.35 | 0.47 | – | – | –
DIP-eta (Dpr-interacting protein eta) | DRSC02342 | -7.69 | 0.08 | – | – | reduced secretion
CG7139 | DRSC11611 | 0.33 | 0.4 | – | – | –
Elp6 (Elongator complex protein 6) | DRSC16571 | 0.07 | -0.44 | – | – | –
ITP (Ion transport peptide) | DRSC04222 | 0.36 | -0.05 | – | – | –
Ars2 (Arsenic resistance protein 2) | DRSC04893 | -0.05 | 0.14 | – | – | –
Der-1 (Derlin-1) | DRSC00301 | -0.07 | 0.17 | – | – | –
CG10584 | DRSC11624 | 0.29 | 0.42 | – | – | –
dmt (dalmatian) | DRSC16932 | -2.15 | -2.18 | – | – | reduced secretion
CG11317 | DRSC14299 | 0.22 | -0.17 | – | – | –
CG7420 | DRSC00704 | 0.34 | 0.35 | – | – | –
CG13838 | DRSC14688 | 0.55 | -0.08 | 0.4 | 0.17 | –
CG9302 | DRSC03191 | 0.7 | 0.53 | – | – | –
Rip11 (Rab11 interacting protein) | DRSC20000 | 0.19 | 0.19 | – | – | –
CG42809 | DRSC02532 | 0.4 | 0.31 | – | – | –
LeuRS-m (Leucyl-tRNA synthetase, mitochondrial) | DRSC08595 | 0.52 | 0.51 | – | – | –
Ent3 (Equilibrative nucleoside transporter 3) | DRSC09822 | 0.3 | 0.23 | – | – | –
CG13113 | DRSC02211 | 0.48 | 0.19 | – | – | –
nau (nautilus) | DRSC17011 | 0.34 | 0.3 | – | – | –
beat-Vc (beaten path Vc) | DRSC12927 | -0.46 | 0.22 | – | – | –
beat-Vc (beaten path Vc) | DRSC14849 | -0.56 | -0.54 | – | – | –
CCDC151 (Coiled-coil domain containing protein 151) | DRSC10131 | 0.3 | 0.28 | – | – | –
CG8833 | DRSC11050 | 0.21 | 0.22 | – | – | –
CG7544 | DRSC07023 | 0.9 | 0.58 | – | – | –
CG1840 | DRSC19806 | -0.06 | -0.03 | – | – | –
CG15594 | DRSC12280 | 0.42 | 0.21 | – | – | –
Nuak (Nuak family kinase) | DRSC14414 | 0.53 | 0.58 | – | – | –
Nuak (Nuak family kinase) | DRSC14415 | 0.53 | 0.43 | – | – | –
Nuak (Nuak family kinase) | DRSC14416 | 0.62 | 0.58 | – | – | –

Reprinted from the entries so far (8 entries):
gene | dsRNA | z-score, replicate 1 | z-score, replicate 2 | z-score, replicate 3 | z-score, replicate 4 | phenotype, replicate 1
CG9302 | DRSC03191 | 0.7 | 0.53 | – | – | –
Rip11 (Rab11 interacting protein) | DRSC20000 | 0.19 | 0.19 | – | – | –
CG42809 | DRSC02532 | 0.4 | 0.31 | – | – | –
LeuRS-m (Leucyl-tRNA synthetase, mitochondrial) | DRSC08595 | 0.52 | 0.51 | – | – | –
Ent3 (Equilibrative nucleoside transporter 3) | DRSC09822 | 0.3 | 0.23 | – | – | –
CG13113 | DRSC02211 | 0.48 | 0.19 | – | – | –
nau (nautilus) | DRSC17011 | 0.34 | 0.3 | – | – | –
beat-Vc (beaten path Vc) | DRSC12927 | -0.46 | 0.22 | – | – | –
